Measured values as given in doi:10.1101/2025.11.23.690026.

Protein sequences, listed by entry. Tags and fused reporters are not part of them. Lines headed by an entry give the natural chain unless they say otherwise; changes in a name come on top.
UniProt P22082: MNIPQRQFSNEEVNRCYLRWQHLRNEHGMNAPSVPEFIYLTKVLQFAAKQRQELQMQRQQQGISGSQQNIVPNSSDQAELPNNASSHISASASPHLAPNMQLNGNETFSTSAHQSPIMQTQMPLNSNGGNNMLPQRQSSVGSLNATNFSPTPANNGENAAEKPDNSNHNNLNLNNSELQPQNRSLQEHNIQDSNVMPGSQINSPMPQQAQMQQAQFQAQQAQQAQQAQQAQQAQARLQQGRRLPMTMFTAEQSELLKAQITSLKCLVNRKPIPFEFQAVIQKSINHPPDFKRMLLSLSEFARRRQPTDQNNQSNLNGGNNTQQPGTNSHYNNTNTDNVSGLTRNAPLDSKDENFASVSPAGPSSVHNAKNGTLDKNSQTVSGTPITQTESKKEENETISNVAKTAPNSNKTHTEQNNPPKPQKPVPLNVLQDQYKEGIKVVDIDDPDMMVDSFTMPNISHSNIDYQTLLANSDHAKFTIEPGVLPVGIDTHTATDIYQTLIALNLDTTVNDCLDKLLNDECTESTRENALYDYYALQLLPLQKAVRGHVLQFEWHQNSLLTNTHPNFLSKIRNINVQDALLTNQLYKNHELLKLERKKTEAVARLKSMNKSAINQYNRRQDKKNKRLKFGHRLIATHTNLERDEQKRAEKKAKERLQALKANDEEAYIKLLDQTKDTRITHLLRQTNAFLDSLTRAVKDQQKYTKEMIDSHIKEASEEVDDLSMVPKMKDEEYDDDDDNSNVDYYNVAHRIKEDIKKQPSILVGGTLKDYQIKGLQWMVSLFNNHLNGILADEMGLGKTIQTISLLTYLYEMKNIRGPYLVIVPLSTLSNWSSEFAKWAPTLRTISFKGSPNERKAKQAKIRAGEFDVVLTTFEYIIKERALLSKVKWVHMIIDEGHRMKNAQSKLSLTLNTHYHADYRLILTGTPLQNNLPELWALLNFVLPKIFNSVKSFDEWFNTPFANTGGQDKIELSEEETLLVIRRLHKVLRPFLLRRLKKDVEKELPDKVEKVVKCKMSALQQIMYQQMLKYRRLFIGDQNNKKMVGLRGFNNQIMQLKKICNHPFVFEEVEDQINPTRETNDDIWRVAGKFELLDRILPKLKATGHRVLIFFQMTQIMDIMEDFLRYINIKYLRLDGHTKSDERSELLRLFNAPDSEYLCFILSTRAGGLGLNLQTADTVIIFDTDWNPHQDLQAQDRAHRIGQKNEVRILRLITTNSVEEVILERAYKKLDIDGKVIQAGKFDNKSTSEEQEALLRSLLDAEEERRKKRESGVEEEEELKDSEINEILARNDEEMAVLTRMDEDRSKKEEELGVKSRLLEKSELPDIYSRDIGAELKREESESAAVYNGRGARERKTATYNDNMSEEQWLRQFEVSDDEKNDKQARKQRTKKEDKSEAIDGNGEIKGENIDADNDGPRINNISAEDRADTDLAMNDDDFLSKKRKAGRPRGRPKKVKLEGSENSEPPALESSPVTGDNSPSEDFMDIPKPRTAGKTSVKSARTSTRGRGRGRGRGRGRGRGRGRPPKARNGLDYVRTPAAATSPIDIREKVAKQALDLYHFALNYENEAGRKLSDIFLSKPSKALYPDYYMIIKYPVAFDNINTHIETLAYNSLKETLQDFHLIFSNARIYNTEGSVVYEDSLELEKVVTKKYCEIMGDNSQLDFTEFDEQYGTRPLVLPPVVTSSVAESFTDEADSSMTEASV
UniProt P04050: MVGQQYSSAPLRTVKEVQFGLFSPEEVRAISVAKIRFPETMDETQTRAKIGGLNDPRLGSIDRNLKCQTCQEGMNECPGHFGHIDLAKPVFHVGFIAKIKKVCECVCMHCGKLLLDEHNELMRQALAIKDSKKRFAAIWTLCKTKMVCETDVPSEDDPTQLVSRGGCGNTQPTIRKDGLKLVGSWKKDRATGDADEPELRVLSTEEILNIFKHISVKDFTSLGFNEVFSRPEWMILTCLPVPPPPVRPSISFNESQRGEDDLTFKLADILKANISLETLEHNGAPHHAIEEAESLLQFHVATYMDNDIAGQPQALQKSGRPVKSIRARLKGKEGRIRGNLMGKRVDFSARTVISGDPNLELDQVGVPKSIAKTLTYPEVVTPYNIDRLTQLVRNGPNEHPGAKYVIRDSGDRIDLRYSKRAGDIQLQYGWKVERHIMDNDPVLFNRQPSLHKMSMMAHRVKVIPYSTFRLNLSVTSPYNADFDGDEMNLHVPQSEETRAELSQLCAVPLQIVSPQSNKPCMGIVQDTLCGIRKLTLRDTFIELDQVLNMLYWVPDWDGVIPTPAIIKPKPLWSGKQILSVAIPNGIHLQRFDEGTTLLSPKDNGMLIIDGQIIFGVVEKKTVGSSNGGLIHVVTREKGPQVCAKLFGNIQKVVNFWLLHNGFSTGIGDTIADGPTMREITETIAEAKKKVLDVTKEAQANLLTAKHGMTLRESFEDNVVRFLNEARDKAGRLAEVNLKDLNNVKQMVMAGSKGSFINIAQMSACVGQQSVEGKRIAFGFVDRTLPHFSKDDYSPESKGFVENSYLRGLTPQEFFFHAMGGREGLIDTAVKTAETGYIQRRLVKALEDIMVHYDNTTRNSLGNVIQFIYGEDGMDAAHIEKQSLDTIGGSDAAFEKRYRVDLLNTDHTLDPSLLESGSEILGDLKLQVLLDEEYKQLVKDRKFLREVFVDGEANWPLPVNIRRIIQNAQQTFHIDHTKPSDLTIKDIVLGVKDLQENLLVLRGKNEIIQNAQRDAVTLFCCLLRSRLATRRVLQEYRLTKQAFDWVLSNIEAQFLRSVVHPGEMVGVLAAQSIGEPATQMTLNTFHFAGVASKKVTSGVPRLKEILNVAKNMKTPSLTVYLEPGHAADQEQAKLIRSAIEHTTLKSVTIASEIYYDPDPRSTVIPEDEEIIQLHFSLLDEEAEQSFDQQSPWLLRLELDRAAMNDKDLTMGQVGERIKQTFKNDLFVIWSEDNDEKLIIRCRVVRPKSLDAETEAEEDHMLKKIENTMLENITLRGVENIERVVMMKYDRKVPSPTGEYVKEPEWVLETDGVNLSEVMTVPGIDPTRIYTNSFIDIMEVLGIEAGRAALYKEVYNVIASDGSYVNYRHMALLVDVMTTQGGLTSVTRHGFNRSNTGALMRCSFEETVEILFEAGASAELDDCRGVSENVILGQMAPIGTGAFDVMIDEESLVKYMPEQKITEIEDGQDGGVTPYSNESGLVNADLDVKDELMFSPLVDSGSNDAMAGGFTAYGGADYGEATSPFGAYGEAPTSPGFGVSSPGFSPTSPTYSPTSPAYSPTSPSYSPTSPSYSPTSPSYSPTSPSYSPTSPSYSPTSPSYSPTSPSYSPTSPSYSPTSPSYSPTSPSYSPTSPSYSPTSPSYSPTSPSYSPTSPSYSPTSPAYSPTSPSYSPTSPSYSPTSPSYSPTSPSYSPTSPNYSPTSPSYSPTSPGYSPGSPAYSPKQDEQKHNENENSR

Tests used:
[1] = target: T1, Set1 1-754 (S. cerevisiae) (UniProt P38827); assay: two-hybrid
T1 sequence: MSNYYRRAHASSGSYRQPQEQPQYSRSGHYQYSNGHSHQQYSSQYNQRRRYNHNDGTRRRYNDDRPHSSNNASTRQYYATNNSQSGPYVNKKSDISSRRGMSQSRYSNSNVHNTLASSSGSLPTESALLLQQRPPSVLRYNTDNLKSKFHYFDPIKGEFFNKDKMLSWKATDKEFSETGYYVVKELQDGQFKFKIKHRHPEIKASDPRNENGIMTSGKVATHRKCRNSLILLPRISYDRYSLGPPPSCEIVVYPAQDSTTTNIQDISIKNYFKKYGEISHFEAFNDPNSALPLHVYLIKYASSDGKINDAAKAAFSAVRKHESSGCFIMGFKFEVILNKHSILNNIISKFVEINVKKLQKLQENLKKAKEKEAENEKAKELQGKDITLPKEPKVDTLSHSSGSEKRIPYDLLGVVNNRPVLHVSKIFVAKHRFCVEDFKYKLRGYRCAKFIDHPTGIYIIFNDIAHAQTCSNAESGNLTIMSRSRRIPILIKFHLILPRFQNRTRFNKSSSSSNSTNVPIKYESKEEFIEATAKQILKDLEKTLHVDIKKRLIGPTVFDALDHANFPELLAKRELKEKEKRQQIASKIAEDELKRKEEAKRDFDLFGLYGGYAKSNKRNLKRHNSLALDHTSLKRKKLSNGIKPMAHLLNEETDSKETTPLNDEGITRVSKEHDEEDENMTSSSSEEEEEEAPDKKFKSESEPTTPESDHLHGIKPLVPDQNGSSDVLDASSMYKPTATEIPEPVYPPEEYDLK

[2] = target: Snf2ΔRG-Myc (S. cerevisiae) (UniProt P22082); assay: co-IP

Row | Molecule | binding [1] | binding [2]
1 | CTD of Rpb1 (from UniProt P04050) (domain or fragment) | binds | –
2 | Set1 (endogenous) (protein, UniProt P38827 1-1080) MSNYYRRAHASSGSYRQPQEQPQYSRSGHYQYSNGHSHQQYSSQYNQRRRYNHNDGTRRRYNDDRPHSSNNASTRQYYATNNSQSGPYVNKKSDISSRRGMSQSRYSNSNVHNTLASSSGSLPTESALLLQQRPPSVLRYNTDNLKSKFHYFDPIKGEFFNKDKMLSWKATDKEFSETGYYVVKELQDGQFKFKIKHRHPEIKASDPRNENGIMTSGKVATHRKCRNSLILLPRISYDRYSLGPPPSCEIVVYPAQDSTTTNIQDISIKNYFKKYGEISHFEAFNDPNSALPLHVYLIKYASSDGKINDAAKAAFSAVRKHESSGCFIMGFKFEVILNKHSILNNIISKFVEINVKKLQKLQENLKKAKEKEAENEKAKELQGKDITLPKEPKVDTLSHSSGSEKRIPYDLLGVVNNRPVLHVSKIFVAKHRFCVEDFKYKLRGYRCAKFIDHPTGIYIIFNDIAHAQTCSNAESGNLTIMSRSRRIPILIKFHLILPRFQNRTRFNKSSSSSNSTNVPIKYESKEEFIEATAKQILKDLEKTLHVDIKKRLIGPTVFDALDHANFPELLAKRELKEKEKRQQIASKIAEDELKRKEEAKRDFDLFGLYGGYAKSNKRNLKRHNSLALDHTSLKRKKLSNGIKPMAHLLNEETDSKETTPLNDEGITRVSKEHDEEDENMTSSSSEEEEEEAPDKKFKSESEPTTPESDHLHGIKPLVPDQNGSSDVLDASSMYKPTATEIPEPVYPPEEYDLKYSQTLSSMDLQNAIKDEEDMLILKQLLSTYTPTVTPETSAALEYKIWQSRRKVLEEEKASDWQIELNGTLFDSELQPGSSFKAEGFRKIADKLKINYLPHRRRVHQPLNTVNIHNERNEYTPELCQREESSNKEPSDSVPQEVSSSRDNRASNRRFQQDIEAQKAAIGTESELLSLNQLNKRKKPVMFARSAIHNWGLYALDSIAAKEMIIEYVGERIRQPVAEMREKRYLKNGIGSSYLFRVDENTVIDATKKGGIARFINHCCDPNCTAKIIKVGGRRRIVIYALRDIAASEELTYDYKFEREKDDEERLPCLCGAPNCKGFLN | – | binds

These are yes or no findings as the source states them, for the method shown. Binding calls can cover weak binding; strength is not graded here. For some assays here: Binding seen in cells or lysates may run through a third protein.
